Laboratory results reported in the supplement of paper PMC10849652.
The list shows a part of the results.

Amino acid sequences for entries named in this document (tags omitted). A change or cut given only in a name is not applied to a line headed by its entry.
UniProt Q659A1: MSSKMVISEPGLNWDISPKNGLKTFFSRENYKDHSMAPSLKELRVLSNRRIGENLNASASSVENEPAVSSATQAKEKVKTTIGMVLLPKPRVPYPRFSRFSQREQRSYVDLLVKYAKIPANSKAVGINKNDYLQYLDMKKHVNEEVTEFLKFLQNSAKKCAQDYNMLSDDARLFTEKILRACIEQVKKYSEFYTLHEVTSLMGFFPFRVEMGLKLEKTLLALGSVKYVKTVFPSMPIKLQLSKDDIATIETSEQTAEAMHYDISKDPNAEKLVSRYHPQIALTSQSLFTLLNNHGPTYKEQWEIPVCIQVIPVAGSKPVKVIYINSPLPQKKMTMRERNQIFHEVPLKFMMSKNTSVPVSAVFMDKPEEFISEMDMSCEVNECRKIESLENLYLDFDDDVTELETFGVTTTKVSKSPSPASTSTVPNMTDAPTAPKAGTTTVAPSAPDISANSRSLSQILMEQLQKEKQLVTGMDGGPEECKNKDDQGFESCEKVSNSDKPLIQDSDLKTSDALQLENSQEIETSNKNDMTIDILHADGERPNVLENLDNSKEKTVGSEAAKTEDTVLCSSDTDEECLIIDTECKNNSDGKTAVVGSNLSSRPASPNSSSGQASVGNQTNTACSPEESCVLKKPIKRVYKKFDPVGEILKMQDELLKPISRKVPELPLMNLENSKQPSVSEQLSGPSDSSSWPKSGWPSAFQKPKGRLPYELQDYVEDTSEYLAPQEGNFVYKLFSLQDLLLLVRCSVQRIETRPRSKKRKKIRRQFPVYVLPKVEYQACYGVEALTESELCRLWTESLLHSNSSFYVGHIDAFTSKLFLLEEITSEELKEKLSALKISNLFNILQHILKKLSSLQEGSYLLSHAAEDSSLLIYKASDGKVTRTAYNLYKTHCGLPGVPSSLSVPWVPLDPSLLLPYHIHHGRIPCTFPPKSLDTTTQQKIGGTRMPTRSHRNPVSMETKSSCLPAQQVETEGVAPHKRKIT
UniProt Q27J81, whole entry, looked up: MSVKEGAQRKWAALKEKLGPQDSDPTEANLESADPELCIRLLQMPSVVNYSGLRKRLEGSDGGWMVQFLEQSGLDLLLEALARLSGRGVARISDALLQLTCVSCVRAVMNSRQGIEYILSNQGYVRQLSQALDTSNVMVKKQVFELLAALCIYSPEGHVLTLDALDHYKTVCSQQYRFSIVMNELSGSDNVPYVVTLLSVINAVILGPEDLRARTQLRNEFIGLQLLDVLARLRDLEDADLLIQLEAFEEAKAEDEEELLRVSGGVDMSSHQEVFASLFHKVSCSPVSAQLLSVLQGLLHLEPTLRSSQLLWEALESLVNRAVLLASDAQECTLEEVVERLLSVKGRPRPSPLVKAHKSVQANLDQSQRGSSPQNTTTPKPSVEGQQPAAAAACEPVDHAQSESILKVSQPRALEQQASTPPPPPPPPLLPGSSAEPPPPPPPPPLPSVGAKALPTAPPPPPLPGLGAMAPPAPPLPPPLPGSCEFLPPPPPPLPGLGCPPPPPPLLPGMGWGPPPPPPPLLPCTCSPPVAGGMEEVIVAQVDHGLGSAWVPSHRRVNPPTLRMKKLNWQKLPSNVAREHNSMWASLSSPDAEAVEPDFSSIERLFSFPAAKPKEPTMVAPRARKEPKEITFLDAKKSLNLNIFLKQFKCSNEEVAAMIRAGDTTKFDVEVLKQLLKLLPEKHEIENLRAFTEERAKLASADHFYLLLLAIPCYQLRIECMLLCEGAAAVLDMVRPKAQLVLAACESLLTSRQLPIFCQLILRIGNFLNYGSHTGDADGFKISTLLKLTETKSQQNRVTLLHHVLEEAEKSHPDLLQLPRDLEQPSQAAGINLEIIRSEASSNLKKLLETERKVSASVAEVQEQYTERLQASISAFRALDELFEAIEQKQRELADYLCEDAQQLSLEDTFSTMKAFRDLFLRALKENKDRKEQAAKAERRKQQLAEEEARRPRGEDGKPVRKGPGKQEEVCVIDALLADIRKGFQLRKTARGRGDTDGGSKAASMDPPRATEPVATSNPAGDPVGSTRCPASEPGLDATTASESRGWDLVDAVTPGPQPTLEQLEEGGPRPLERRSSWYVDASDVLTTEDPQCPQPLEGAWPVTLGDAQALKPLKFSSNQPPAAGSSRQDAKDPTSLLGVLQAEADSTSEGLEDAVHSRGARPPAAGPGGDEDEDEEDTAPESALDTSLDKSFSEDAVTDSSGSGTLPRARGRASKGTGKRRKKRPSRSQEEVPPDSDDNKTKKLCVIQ
UniProt O43837: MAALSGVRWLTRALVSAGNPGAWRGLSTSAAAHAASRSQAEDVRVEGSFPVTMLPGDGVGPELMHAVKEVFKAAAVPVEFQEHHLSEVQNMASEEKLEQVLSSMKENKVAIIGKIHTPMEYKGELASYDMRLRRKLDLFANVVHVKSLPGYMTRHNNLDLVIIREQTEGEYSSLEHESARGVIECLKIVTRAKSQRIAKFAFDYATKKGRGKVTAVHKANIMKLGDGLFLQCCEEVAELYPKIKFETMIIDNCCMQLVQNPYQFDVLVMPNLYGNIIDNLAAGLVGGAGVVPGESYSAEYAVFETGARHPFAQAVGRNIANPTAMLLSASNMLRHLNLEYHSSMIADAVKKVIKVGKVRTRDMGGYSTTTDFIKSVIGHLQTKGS
UniProt Q9NXR8, whole entry, looked up: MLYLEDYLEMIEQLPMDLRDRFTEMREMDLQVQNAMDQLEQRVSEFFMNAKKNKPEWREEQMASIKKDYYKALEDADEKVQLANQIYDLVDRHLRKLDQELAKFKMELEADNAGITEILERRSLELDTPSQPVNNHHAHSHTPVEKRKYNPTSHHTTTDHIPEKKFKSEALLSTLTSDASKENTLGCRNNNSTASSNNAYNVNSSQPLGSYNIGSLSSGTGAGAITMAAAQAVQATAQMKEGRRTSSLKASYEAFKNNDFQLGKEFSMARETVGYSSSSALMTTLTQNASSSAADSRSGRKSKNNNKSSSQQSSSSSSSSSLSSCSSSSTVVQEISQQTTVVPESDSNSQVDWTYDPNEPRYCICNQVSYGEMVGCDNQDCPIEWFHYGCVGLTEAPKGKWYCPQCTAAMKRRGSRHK
UniProt P78318: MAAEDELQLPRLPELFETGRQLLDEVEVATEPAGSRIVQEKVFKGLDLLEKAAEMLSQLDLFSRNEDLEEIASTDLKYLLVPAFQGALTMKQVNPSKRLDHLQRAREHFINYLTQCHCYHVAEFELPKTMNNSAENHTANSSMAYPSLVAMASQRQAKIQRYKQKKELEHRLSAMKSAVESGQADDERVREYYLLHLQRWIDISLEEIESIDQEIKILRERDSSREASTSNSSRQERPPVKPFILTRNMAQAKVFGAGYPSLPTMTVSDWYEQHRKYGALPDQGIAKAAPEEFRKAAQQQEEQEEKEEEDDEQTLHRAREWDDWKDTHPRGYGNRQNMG
UniProt Q13422: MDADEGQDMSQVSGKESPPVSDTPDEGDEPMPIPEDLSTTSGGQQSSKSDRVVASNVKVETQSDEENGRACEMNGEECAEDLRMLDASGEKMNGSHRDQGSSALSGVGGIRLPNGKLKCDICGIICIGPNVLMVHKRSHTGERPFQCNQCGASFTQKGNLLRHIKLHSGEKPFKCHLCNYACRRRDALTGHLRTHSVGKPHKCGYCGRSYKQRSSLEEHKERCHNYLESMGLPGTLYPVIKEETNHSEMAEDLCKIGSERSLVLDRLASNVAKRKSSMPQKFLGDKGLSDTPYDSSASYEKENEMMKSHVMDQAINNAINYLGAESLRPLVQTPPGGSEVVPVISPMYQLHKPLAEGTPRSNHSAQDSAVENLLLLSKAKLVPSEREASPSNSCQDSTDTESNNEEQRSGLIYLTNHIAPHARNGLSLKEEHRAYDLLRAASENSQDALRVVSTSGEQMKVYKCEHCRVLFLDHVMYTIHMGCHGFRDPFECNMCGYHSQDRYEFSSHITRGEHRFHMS
UniProt Q12906, whole entry, looked up: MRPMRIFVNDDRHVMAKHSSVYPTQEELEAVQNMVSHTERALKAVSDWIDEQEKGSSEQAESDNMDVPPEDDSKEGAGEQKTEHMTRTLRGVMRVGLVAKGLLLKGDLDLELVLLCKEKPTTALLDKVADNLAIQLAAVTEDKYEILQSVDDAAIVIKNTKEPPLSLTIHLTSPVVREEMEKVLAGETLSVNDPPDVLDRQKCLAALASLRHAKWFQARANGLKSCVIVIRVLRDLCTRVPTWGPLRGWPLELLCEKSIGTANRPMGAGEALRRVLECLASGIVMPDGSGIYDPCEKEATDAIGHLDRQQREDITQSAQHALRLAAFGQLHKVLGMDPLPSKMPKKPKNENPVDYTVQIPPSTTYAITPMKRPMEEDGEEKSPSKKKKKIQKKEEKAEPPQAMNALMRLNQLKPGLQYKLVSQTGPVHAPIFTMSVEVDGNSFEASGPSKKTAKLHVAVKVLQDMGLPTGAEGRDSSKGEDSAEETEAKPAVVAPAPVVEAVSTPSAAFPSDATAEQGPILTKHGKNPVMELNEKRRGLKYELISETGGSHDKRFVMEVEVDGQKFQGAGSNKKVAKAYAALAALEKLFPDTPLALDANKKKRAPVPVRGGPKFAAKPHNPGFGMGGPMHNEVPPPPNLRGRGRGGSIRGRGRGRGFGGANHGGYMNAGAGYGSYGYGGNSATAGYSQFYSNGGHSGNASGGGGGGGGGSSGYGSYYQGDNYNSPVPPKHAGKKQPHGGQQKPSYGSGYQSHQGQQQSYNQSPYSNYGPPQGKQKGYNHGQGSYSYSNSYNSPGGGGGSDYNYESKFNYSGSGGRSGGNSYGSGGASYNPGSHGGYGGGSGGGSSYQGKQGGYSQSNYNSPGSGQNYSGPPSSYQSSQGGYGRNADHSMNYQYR
UniProt Q70UQ0: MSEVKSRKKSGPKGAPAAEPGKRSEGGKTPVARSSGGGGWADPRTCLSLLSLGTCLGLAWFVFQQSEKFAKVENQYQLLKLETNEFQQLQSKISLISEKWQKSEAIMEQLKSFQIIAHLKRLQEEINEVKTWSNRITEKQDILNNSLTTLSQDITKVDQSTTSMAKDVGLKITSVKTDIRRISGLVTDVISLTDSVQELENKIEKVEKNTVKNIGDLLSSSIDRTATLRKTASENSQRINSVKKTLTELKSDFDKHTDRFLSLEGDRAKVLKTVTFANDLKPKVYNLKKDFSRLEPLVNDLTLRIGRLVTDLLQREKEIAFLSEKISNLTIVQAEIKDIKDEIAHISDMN
UniProt Q9HBG6: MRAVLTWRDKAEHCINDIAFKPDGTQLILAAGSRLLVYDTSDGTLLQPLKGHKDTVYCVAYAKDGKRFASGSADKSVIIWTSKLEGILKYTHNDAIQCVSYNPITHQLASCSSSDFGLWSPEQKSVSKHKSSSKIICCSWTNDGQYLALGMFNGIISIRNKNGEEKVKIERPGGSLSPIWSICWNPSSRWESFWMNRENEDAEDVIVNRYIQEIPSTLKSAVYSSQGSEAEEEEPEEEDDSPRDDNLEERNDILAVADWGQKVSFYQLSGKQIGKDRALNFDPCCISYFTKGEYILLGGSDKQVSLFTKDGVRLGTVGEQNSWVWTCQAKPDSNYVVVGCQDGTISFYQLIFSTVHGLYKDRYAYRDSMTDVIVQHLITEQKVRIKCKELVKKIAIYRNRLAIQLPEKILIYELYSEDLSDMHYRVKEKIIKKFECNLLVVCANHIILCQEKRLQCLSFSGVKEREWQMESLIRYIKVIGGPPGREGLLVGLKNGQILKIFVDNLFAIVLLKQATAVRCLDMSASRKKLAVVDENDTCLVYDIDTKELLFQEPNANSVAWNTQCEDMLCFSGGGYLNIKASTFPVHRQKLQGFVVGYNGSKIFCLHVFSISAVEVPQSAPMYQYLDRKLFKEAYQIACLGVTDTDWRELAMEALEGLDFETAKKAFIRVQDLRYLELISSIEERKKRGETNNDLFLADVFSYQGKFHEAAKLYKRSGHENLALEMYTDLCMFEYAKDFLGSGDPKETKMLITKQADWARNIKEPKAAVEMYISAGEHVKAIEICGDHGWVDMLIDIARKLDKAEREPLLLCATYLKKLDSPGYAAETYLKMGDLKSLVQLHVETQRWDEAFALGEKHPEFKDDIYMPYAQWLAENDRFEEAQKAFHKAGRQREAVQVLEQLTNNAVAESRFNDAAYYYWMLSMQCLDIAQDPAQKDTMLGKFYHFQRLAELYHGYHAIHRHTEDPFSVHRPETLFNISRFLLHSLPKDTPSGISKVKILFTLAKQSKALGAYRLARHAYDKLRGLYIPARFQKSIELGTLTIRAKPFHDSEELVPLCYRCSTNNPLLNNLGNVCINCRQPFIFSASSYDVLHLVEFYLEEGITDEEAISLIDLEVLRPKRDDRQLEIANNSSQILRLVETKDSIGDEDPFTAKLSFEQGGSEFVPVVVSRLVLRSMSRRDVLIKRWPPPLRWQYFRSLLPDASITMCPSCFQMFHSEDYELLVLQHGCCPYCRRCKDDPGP
UniProt Q8IY31, whole entry, looked up: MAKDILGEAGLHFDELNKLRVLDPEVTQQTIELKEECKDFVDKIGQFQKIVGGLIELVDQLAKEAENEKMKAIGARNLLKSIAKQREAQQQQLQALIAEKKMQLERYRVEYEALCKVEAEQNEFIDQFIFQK

What follows are targets tested with Cc1ncc(-c2ccnc(Nc3ccc(S(C)(=O)=O)cc3)n2)n1C(C)C (assay: log2 fold change, soluble protein after heating vs DMSO (PISA); higher = thermal stabilisation; K562 lysate, 10 uM; active = over 0.2 and 3.5 SD of the protein, either way, in both replicates (recomputed)).
Outline: (§1)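 A 30 min treatment with 10 μM compound was applied to crude K562 extract at 1 mg/mL protein in PBS pH 7.4 with 1 mM MgCl2. Heating for 3 min spanned 48°C-58°C, after which aliquots were pooled, adjusted to 0.5% NP-40 at 4°C and spun at 21,000xg for 90 min. TMTpro 16plex LC-MS/MS of the supernatant, with channel sums equalised, gave values recorded as log-two fold change in thermal stability against solvent controls, from duplicates.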

log2 fold change, inactive:
ICE2 (UniProt Q659A1) 0.036, ICMT (UniProt O60725) 0.034, IGFBP4 (UniProt P22692) -0.053, INF2 (UniProt Q27J81) 0.034, IMPDH2 (UniProt H0Y4R1) 0.014, IDH3B (UniProt O43837) 0.008, IGSF3 (UniProt O75054) -0.028, ICAM1 (UniProt P05362) -0.015, INPPL1 (UniProt O15357) -0.02, HSPA8 (UniProt E9PK54) -0.021, HUS1 (UniProt O60921) -0.01, IARS2 (UniProt Q9NSE4) 0.026, IBA57 (UniProt Q5T440) -0.015, ING3 (UniProt Q9NXR8) -0.012, ICE1 (UniProt Q9Y2F5) 0.011, IGBP1 (UniProt P78318) 0.036, IFT80 isoform 3 (UniProt Q9P2H3) 0, HSPE1 (UniProt P61604) 0.016, IGF2R (UniProt P11717) -0.022, HTRA2 (UniProt O43464) 0, INPP1 (UniProt P49441) -0.043, IKZF1 (UniProt Q13422) 0.011, INO80E (UniProt Q8NBZ0) -0.131, INPP4A (UniProt Q96PE3) 0.005, HYOU1 (UniProt J3QL06) -0.098, ILF3 isoform 7 (UniProt Q12906) -0.017, IARS (UniProt P41252) -0.015, HSPA8 (UniProt E9PN89) -0.055, IKBIP (UniProt Q70UQ0) 0.06, IFT122 isoform 5 (UniProt Q9HBG6) 0.127, IFT20 isoform 2 (UniProt Q8IY31) 0.127

log2 fold change, active:
IMPACT (UniProt Q9P2X3) -0.687

These targets were tested with Cn1cc(-c2ccc3c(c2)CCN3C(=O)Cc2cccc(C(F)(F)F)c2)c2c(N)ncnc21 in the same assay as above.
Outline: as §1

log2 fold change, inactive:
ICE2 (UniProt Q659A1) 0.024, ICMT (UniProt O60725) 0.069, IGFBP4 (UniProt P22692) -0.022, INF2 (UniProt Q27J81) -0.013, IMPDH2 (UniProt H0Y4R1) -0.066, IDH3B (UniProt O43837) 0.019, IGSF3 (UniProt O75054) 0.066, ICAM1 (UniProt P05362) -0.006, INPPL1 (UniProt O15357) 0.035, HSPA8 (UniProt E9PK54) -0.032, HUS1 (UniProt O60921) -0.017, IARS2 (UniProt Q9NSE4) 0, IBA57 (UniProt Q5T440) 0, ING3 (UniProt Q9NXR8) 0.06, ICE1 (UniProt Q9Y2F5) -0.066, IGBP1 (UniProt P78318) -0.018, IFT80 isoform 3 (UniProt Q9P2H3) -0.01, HSPE1 (UniProt P61604) 0.001, IGF2R (UniProt P11717) 0.012, HTRA2 (UniProt O43464) -0.004, INPP1 (UniProt P49441) -0.001, IKZF1 (UniProt Q13422) -0.077, INO80E (UniProt Q8NBZ0) -0.064, INPP4A (UniProt Q96PE3) 0.123, HYOU1 (UniProt J3QL06) -0.117, IMPACT (UniProt Q9P2X3) 0.04, ILF3 isoform 7 (UniProt Q12906) 0.014, IARS (UniProt P41252) 0.053, HSPA8 (UniProt E9PN89) -0.032, IKBIP (UniProt Q70UQ0) -0.012, IFT122 isoform 5 (UniProt Q9HBG6) -0.011, IFT20 isoform 2 (UniProt Q8IY31) -0.052

The targets below were run with Cn1cc(CNCC2CCN(c3ncc(C(=O)NO)cn3)CC2)c2ccccc21 [quisinostat] in the same assay as above.
Outline: as §1

log2 fold change, inactive:
ICE2 (UniProt Q659A1) -0.067, ICMT (UniProt O60725) 0, IGFBP4 (UniProt P22692) -0.049, INF2 (UniProt Q27J81) -0.051, IMPDH2 (UniProt H0Y4R1) -0.153, IDH3B (UniProt O43837) 0.018, IGSF3 (UniProt O75054) -0.021, ICAM1 (UniProt P05362) 0.061, INPPL1 (UniProt O15357) 0, HSPA8 (UniProt E9PK54) -0.093, HUS1 (UniProt O60921) -0.034, IARS2 (UniProt Q9NSE4) 0.022, IBA57 (UniProt Q5T440) 0.072, ING3 (UniProt Q9NXR8) 0.028, ICE1 (UniProt Q9Y2F5) -0.075, IGBP1 (UniProt P78318) -0.019, IFT80 isoform 3 (UniProt Q9P2H3) 0.058, HSPE1 (UniProt P61604) 0.031, IGF2R (UniProt P11717) -0.052, HTRA2 (UniProt O43464) -0.033, INPP1 (UniProt P49441) 0.017, IKZF1 (UniProt Q13422) 0.026, INO80E (UniProt Q8NBZ0) -0.164, INPP4A (UniProt Q96PE3) -0.03, HYOU1 (UniProt J3QL06) 0.138, IMPACT (UniProt Q9P2X3) -0.103, ILF3 isoform 7 (UniProt Q12906) 0.039, IARS (UniProt P41252) -0.02, HSPA8 (UniProt E9PN89) -0.415, IKBIP (UniProt Q70UQ0) 0.052, IFT122 isoform 5 (UniProt Q9HBG6) 0.17, IFT20 isoform 2 (UniProt Q8IY31) 0.001
